Reference: the supplement of paper PMC12823440, “Inhibitors supercharge kinase turnover through native proteolytic circuits” (Nature, 2025)
Structures can show the parent of a compound that is named as a salt. The list shows a part of the results. The calls rarely recur for the same compound in another form.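 Kinases were expressed as nanoluciferase fusions in K562 cells and luminescence was read every 4 h between 2 and 18 h as percent of control, DMSO set to 100% and a positive control to 0%. A time point counts as decreased when the signal drops significantly (2 sigma). The hit call is the authors' own, does not follow from the count of time points alone, and its rule is not shown.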

Amino acid sequences for entries named in this document (tags omitted).
UniProt Q96GD4, whole entry: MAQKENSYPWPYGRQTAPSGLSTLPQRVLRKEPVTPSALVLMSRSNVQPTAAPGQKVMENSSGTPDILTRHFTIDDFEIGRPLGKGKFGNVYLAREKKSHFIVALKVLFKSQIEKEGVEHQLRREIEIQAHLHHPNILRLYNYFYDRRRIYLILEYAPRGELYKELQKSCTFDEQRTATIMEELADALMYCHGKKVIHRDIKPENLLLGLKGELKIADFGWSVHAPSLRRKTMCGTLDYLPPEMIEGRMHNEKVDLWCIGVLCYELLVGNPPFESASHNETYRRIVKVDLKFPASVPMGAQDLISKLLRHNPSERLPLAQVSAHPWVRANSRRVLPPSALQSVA

Molecular target: AURKB (UniProt Q96GD4)
Assay: number of time points (of 5) at which kinase-Nluc abundance scored as decreased, DMSO-normalised (count); higher = more persistent destabilization
Conditions: K562; 2-18 h

**Q.** How did the “number of time points” value turn out when `N#Cc1cnc2c(Cl)cc(NCc3cn(CCN4CCCCCC4)nn3)cc2c1Nc1ccc(F)c(Cl)c1` [Cot inhibitor-1] (10 µM) was run?
**A.** The value was 0.

**Q.** `Cc1cc(Nc2cc(N)ncn2)c(=O)n2c1C(=O)NC21CCCCC1` [Tomivosertib] (10 µM) was tested. Which “number of time points” value did it give?
**A.** Its value is 0.

**Q.** `CC(Cc1ccc(O)c(O)c1)C(C)Cc1ccc(O)c(O)c1` (stereo unspecified) [Nordihydroguaiaretic acid] (2.5 µM) was tested. Which “number of time points” value did it give?
**A.** The value was 0.

**Q.** `CNC(=O)c1ccc2c(C(=Nc3cccc(CN(C)C)c3)c3ccccc3)c(O)[nH]c2c1` [MEK inhibitor] (10 µM) was tested. Which “number of time points” value did it give?
**A.** The value was 0.

**Q.** How did the “number of time points” value turn out when `COC(=O)[C@H](CCSC)NC(=O)c1ccc(NC[C@@H](N)CS)cc1-c1ccccc1` [FTI-277 (hydrochloride)] (10 µM) was run?
**A.** Its value is 0.

**Q.** How did the “number of time points” value turn out when `C=CC(=O)Nc1ccc(C(=O)Nc2[nH]nc3c2CN(C(=O)N[C@H](CN(C)C)c2ccccc2)C3(C)C)cc1` (10 µM) was run?
**A.** Its value is 0.

**Q.** For `CCN(CC)CCCC(C)Nc1nc(C)cc(Nc2ccc3nc(C)cc(N)c3c2)n1` (stereo unspecified) (10 µM), which “number of time points” value is on record?
**A.** Its value is 0.

**Q.** How did the “number of time points” value turn out when `COc1cc(F)ccc1-c1ncnc(Nc2cccc(C[S@](C)(=N)=O)c2)n1` [Atuveciclib] (2.5 µM) was run?
**A.** Its value is 0.

**Q.** Which “number of time points” value does the source give for `O=C(c1cccc(Cl)c1F)N1CCN(Cc2cccc(Nc3nccs3)n2)CC1` (2.5 µM) here?
**A.** Its value is 0.

**Q.** `N#Cc1ccc(-c2cnc3ccc(-c4ccc(C(=O)N5CCOCC5)cc4)cn23)cc1` (10 µM) was tested. Which “number of time points” value did it give?
**A.** The value was 0.

**Q.** How did the “number of time points” value turn out when `Cc1ccc(C(=O)NC2CC2)cc1-n1ncc(C(=O)c2cccc(C#N)c2)c1N` [Acumapimod] (10 µM) was run?
**A.** Its value is 0.

**Q.** For `N#Cc1ccc(-c2cnc3[nH]cc(NC(=O)c4cccnc4)c3c2)cc1` (10 µM), which “number of time points” value is on record?
**A.** Its value is 0.

**Q.** Which “number of time points” value does the source give for `CC1(N)CCN(c2cccnc2NC(=O)c2nc(-c3ncccc3C(F)(F)F)cnc2N)CC1` [Darovasertib] (10 µM) here?
**A.** The value was 0.

**Q.** How did the “number of time points” value turn out when `COc1cc(N2CCC(N3CCN(C)CC3)CC2)ccc1Nc1ncc(Cl)c(-c2c[nH]c3ccccc23)n1` (2.5 µM) was run?
**A.** The value was 0.

**Q.** `CN1CCN(c2ccc(Nc3ncc4cc(C#N)c(=O)n(C5CCCC5)c4n3)cc2)CC1` (10 µM) was tested. Which “number of time points” value did it give?
**A.** Its value is 0.

**Q.** With `CO[C@H]1CC[C@H](N2C(=O)CNc3ncc(-c4ccc(C(C)(C)O)nc4)nc32)CC1` (2.5 µM) as the molecule, how does the “number of time points” value read?
**A.** Its value is 0.

**Q.** `Cc1c(C(=O)Nc2ccc(Oc3ccnc4[nH]cc(-c5ccccc5)c34)c(F)c2)c(=O)n(-c2ccc(F)cc2)n1C` (10 µM) was tested. Which “number of time points” value did it give?
**A.** The value was 0.

**Q.** With `COc1ccc(Nc2ncc(C(F)(F)F)c(NC3CC3)n2)cc1OC` (10 µM) as the molecule, how does the “number of time points” value read?
**A.** The value was 0.

**Q.** With `C[C@@H]1O[C@@H](Oc2cc(O)c3c(=O)c(O[C@@H]4O[C@@H](C)[C@H](O)[C@@H](O)[C@H]4O)c(-c4ccc(O)cc4)oc3c2)[C@H](O)[C@H](O)[C@H]1O` [Kaempferitrin] (10 µM) as the molecule, how does the “number of time points” value read?
**A.** Its value is 0.

**Q.** `COC(=O)Nc1ccc(-c2nc(N3CCOCC3)c3cnn(C4CCN(Cc5cccnc5)CC4)c3n2)cc1` (10 µM) was tested. Which “number of time points” value did it give?
**A.** The value was 0.

**Q.** `CC(C)Oc1ccc(F)c(-c2cnc(N)c(C(=O)Nc3cnccc3N3CCC[C@@H](C(=O)O)C3)n2)c1` (2 µM) was tested. Which “number of time points” value did it give?
**A.** The value was 0.

**Q.** For `O=Nc1c(-c2c(O)[nH]c3cc(Br)ccc23)[nH]c2ccccc12` [GSK 3 Inhibitor IX] (2.5 µM), which “number of time points” value is on record?
**A.** Its value is 0.

**Q.** With `NCC1CCC(CNc2nc(NCc3ccccc3OC(F)(F)F)ncc2[N+](=O)[O-])CC1` (stereo unspecified) [PKC-theta inhibitor] (10 µM) as the molecule, how does the “number of time points” value read?
**A.** The value was 0.

**Q.** How did the “number of time points” value turn out when `N[C@@H]1CCCN(c2c(/C=C3\SC(=O)NC3=O)cccc2-c2ccccc2)C1` (10 µM) was run?
**A.** Its value is 0.

**Q.** `CCn1c(-c2nonc2N)nc2c(C#CC(C)(C)O)ncc(OC[C@H]3CCCNC3)c21` (10 µM) was tested. Which “number of time points” value did it give?
**A.** The value was 0.

**Q.** How did the “number of time points” value turn out when `CNC(=O)c1cc2c(Oc3ccc(NC(=O)C4(C(=O)Nc5ccc(F)cc5)CC4)cc3)ccnc2cc1OC` (2.5 µM) was run?
**A.** Its value is 0.

**Q.** How did the “number of time points” value turn out when `C=CC(=O)N1CC[C@@H](Oc2nc(Nc3ccc(N4CCC(N5CCN(C)CC5)CC4)cc3)c(C(N)=O)nc2CC)C1` [Naquotinib (mesylate)] (2.5 µM) was run?
**A.** The value was 0.

**Q.** Which “number of time points” value does the source give for `C=CC(=O)Nc1cc(Nc2nccc(-c3cn(C)c4ccccc34)n2)c(OC)cc1OCCN(C)C` [Rezivertinib] (2.5 µM) here?
**A.** Its value is 0.

**Q.** How did the “number of time points” value turn out when `Oc1c(F)cc(-c2cnccc2-c2ccc(N3CCOCC3)cc2)cc1F` (10 µM) was run?
**A.** The value was 0.

**Q.** How did the “number of time points” value turn out when `Brc1ccc(CSc2nc3ccccc3o2)cc1` [BMP signaling agonist sb4] (10 µM) was run?
**A.** The value was 0.

**Q.** Which “number of time points” value does the source give for `O=C1OC(/C=C/c2ccccc2)=NC/1=C\c1cccnc1` (10 µM) here?
**A.** Its value is 0.
